The inconclusive results got no clear call from the source; some entries with a clear call stand among them for comparison. The source made the active and inactive calls.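 Rule for the calls: active = inhibition over a set limit, the all-compound mean plus 3 SD, in both replicate runs; inconclusive = over that limit in just one replicate run; inactive = at or under that limit in both runs.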
Assay: RAM pathway blockade in budding yeast – dse1pr::URA3 reporter, 5-FOA selection, pilot screen (AID 869);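 note: 0% = DMSO wells with no growth and 100% = 10 µM 1-NA-PP1 with full growth; RAM network block rescues cells from 5-FOA so hits raise OD615 growth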
Details: S. cerevisiae dse1pr::URA3 5-FOA growth, OD615, 2 d; at 10 µM; active compounds read high; strain carries analog-sensitive mutant Cbk1 kinase
In the case of `CCOc1ccccc1NC(=O)CSc1ccccc1`, the inhibition is reported as inactive: 0.255%. In the case of `N#Cc1nc(-c2ccc(F)cc2)oc1NCCN1CCOCC1`, the inhibition is reported as inconclusive: 3.51%. For `CCCCOC(=O)Nc1nc2ccc(OC)cc2s1`, the inhibition was inconclusive: 4.19%. For `COc1ccccc1S(=O)(=O)Cc1ccc(C(=O)NCc2cccnc2)o1`, the inhibition was inconclusive: 2.96%. In the case of `O=C(CCCOc1ccccc1)N1CCCc2ccccc21`, the inhibition is reported as inactive: 0.825%. With `COc1ccc(C2c3c(oc4ccccc4c3=O)C(=O)N2c2ccc(C)cn2)cc1OC` (stereo unspecified) the inhibition was inconclusive: 5.79%.

— PubChem BioAssay
